The other results are listed elsewhere or left out. Further columns of the screen follow, without active or inactive calls. Compounds called inactive in the main read-out are mostly missing here. The note in brackets gives the kind of curve behind each potency; many fits are weak.
Test: Cell signaling CRE-BLA (Fsk stim)
Conditions: CHO CRE-bla reporter (cAMP response element driving beta-lactamase), forskolin EC10, beta-lactamase ratio; measured here: 460 nm blue channel
In short: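 Modulation of forskolin-driven signalling is measured in CHO cells carrying a CRE-controlled beta-lactamase reporter. Cells are stimulated with EC10 NKH 477 in the presence of titrated compound for 3 h at 37 °C, then loaded with CCF4 for 2 h at room temperature.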

SMILES	AC50
CCOC(=O)COc1cc2c3c(c(=O)oc2cc1C)CCCC3	0.0158 µM [falling, full curve, poor fit]
Cc1nc(SCC(=O)Nc2cc(C)on2)c2c(=O)n(C)c(=O)n(C)c2n1	2 µM [rising, full curve]
Cc1ccc(S(=O)(=O)N2CC(O)CC2C(=O)Nc2ccc3c(c2)CCC3)cc1 (configuration not stated)	0.00316 µM [falling, full curve, poor fit]
COc1cccc(-c2cc(C(F)(F)F)nc(N3CCCCC3)n2)c1	12.6 µM [rising, single point]
COc1ccc(NC(=O)CCCCn2c(=O)[nH]c3ccccc3c2=O)cc1	2 µM [rising, full curve, poor fit]
Cc1c(NC(=O)CC(=O)Nc2c(C)n(C)n(-c3ccccc3)c2=O)c(=O)n(-c2ccccc2)n1C	10 µM [rising, partial curve]
CN(C)c1ccc(-c2ccc3ncnc(N(C)C)c3c2)cc1	12.6 µM [rising, partial curve]
CC(C)c1nc2sc3c(SCC(=O)NCc4ccco4)ncnc3c2c2c1CCC2	12.6 µM [rising, single point]
COc1cc(C2N=C(c3ccccc3)NO2)cc(Br)c1O (configuration not stated)	3.98 µM [falling, single point]
O=c1n(Cc2ccc(Cl)cc2)c2sc3c(c2c2ncnn12)CCCC3	3.98 µM [rising, partial curve]
Cc1ccccc1NS(=O)(=O)c1ccc(C2CNC(=O)C2)cc1 (configuration not stated)	12.6 µM [rising, partial curve]
COc1ccc(C(=O)N2CCCC(c3nc(-c4ccc(OC)c(OC)c4)no3)C2)c(OC)c1 (configuration not stated)	10 µM [rising, partial curve]
COc1ccccc1N1CCN(CC(=O)c2ccc3ccn(C(C)=O)c3c2)CC1	2.51 µM [falling, full curve]
O=C(c1ccc2c(c1)OCO2)N1CCNc2ccccc2C1	15.8 µM [rising, single point]
FC(F)(F)c1cc(-c2ccco2)nc(-n2nc(C(F)(F)F)cc2C2CC2)n1	0.316 µM [rising, full curve]
COc1cccc(-c2csc(N3CCN(S(=O)(=O)c4ccc(F)cc4)CC3)n2)c1	15.8 µM [falling, single point]
COc1ccc2nc(SCC(=O)Nc3ccccc3C#N)[nH]c2c1	15.8 µM [rising, partial curve]
O=C(CN(CCc1ccccc1)C(=O)CN1C(=O)COc2ccccc21)NCc1ccco1	0.316 µM [falling, partial curve]
C=CCn1c(SCc2cccnc2)nnc1-c1ccncc1	20 µM [rising, single point]
Oc1ccc2[nH]ccc2c1	10 µM [falling, partial curve]
Fc1ccc2[nH]c3c(N4CCSCC4)ncnc3c2c1	25.1 µM [falling, single point]
CCn1c(SCC(N)=O)nnc1-c1ccc(S(=O)(=O)N2CCN(C)CC2)cc1	3.98 µM [falling, single point]
CC(C)COC(=O)n1c(SCC(=O)N(C)C)nc2ccccc21	10 µM [rising, partial curve]

SMILES	AC50
NC(=O)c1ccccc1NC(=O)CS(=O)(=O)Cc1ccccc1	10 µM [rising, partial curve]
CC(C)Cn1c(N)c(C(=O)COC(=O)c2ccc3c(c2)OCCO3)c(=O)n(C)c1=O	12.6 µM [rising, partial curve]
CCOC(=O)c1sc(N2C(=O)C(O)=C(C(=O)c3ccco3)C2c2ccccc2)nc1C (configuration not stated)	15.8 µM [rising, single point]
CCOC(=O)c1c(C)[nH]c(C(=O)COC(=O)C2CC2C)c1C (configuration not stated)	7.94 µM [rising, partial curve]
O=C(CCn1nc(-c2ccccc2)c2ccccc2c1=O)N1CCN(c2ccccc2)CC1	5.01 µM [rising, partial curve]
Cc1cc(C)c2cc(CN(CCO)C(=O)Nc3ccc(F)cc3)c(=O)[nH]c2c1	10 µM [rising, partial curve]
COc1ccc2[nH]cc(CCNc3cc(-c4ccc(C(=O)N(C)C)cc4)ncn3)c2c1	25.1 µM [rising, single point]
Cc1cc(NC(=O)CCCS(=O)(=O)c2nc(-c3cccs3)cc(C(F)(F)F)n2)no1	5.01 µM [falling, partial curve]
O=C(O)c1cc(NCc2ccc3c(c2)OCO3)ccc1N1CCOCC1	3.16 µM [falling, full curve, poor fit]
COc1ccc(C(=O)N2CCN(C(C)=O)CC2)cc1S(=O)(=O)NCc1ccc(Cl)cc1	5.01 µM [falling, partial curve]
CCCCc1ccc2nc(NC(=O)OC)[nH]c2c1	0.316 µM [rising, full curve]
CC(=O)Nc1ccc(NC(=O)CSc2nccn2Cc2ccccc2)cc1	1.26 µM [falling, full curve]
COC(=O)c1ccc(COc2ccc3c(C)c(C)c(=O)oc3c2C)o1	0.00316 µM [falling, full curve]
Cc1ccc2c(c1)c1nc3ccccc3nc1n2CCN1CCOCC1	1.58 µM [rising, full curve]
Cc1cc(C(F)(F)F)nn1-c1nc(-c2ccco2)cc(C(F)(F)F)n1	0.01 µM [rising, full curve, poor fit]
CCOC(=O)c1c(NC(=O)c2ccco2)sc2c1CCCCC2	12.6 µM [rising, partial curve]
COc1cccc(CN2CCN(c3ncccn3)CC2)c1	0.00398 µM [falling, full curve]
Cc1nc(NCc2ccco2)c2c3c(sc2n1)CCC3	10 µM [rising, partial curve]
Cc1ccc(-c2nn(C)c(=O)c3ccccc23)cc1S(=O)(=O)N1CCCC1	2.51 µM [rising, full curve]
CCC(C)NC(=O)C(NS(=O)(=O)c1cccc2nsnc12)c1ccccc1 (configuration not stated)	0.0251 µM [falling, full curve, poor fit]
C/C=C/Cn1c(SCc2ccccc2)nc2c1c(=O)[nH]c(=O)n2C	10 µM [rising, partial curve]
O=C(C1CCC1)N1CCC(c2nc3c(nnn3Cc3c(F)cccc3Cl)c(=O)[nH]2)CC1	10 µM [rising, partial curve]
COc1ccc(C2=NO[C@@H]3C(=O)N(c4cccc(C)c4C)C(=O)[C@H]23)cc1OC	0.251 µM [falling, partial curve]

Of the compounds above, 4 have a CF3 group.
SMILES	AC50
COc1cccc(-c2cc(C(F)(F)F)nc(N3CCCCC3)n2)c1	12.6 µM [rising, single point]
FC(F)(F)c1cc(-c2ccco2)nc(-n2nc(C(F)(F)F)cc2C2CC2)n1	0.316 µM [rising, full curve]
Cc1cc(NC(=O)CCCS(=O)(=O)c2nc(-c3cccs3)cc(C(F)(F)F)n2)no1	5.01 µM [falling, partial curve]
Cc1cc(C(F)(F)F)nn1-c1nc(-c2ccco2)cc(C(F)(F)F)n1	0.01 µM [rising, full curve, poor fit]

Remaining list, next part

SMILES	AC50
CSc1nc2c(c(=O)[nH]c(=O)n2C)n1C/C=C(\C)Cl	12.6 µM [rising, partial curve]
CC1(C)Cc2c(sc3nc(NCCN4CCOCC4)n4ncnc4c23)CO1	2 µM [rising, full curve]
C=CCc1c(C)[nH]c(=S)c(C#N)c1C	12.6 µM [rising, single point]
O=c1cc(CSc2nnc(-c3cccs3)n2Cc2ccccc2)nc2sc3ccccc3n12	12.6 µM [rising, partial curve]
CCOc1cc(OCC)c(C(C)=O)cc1OCC	10 µM [rising, partial curve]
COc1ccc(-n2c(SCC(=O)Nc3nccs3)nc3c(c2=O)SCC3)cc1	12.6 µM [rising, single point]
Cc1cc(N2CCN(C(=O)c3ccco3)CC2)n2ncnc2n1	3.16 µM [falling, single point]
Cc1ccc(-c2nnc(N3CCOCC3)c3ccccc23)cc1S(=O)(=O)NCC1CCCO1 (configuration not stated)	3.16 µM [rising, full curve]
Cc1cc(C)nc(NC(=O)Nc2ccccc2C(F)(F)F)n1	12.6 µM [rising, single point]
CN(C)c1ccc(-c2nnn(CC(=O)Nc3ccccc3N3CCOCC3)n2)cc1	5.01 µM [rising, single point]
CN(C)c1nc(N)nc(-c2ccco2)n1	12.6 µM [rising, single point]
Cc1cnc(C(=O)Nc2cccc(-c3nnc4n3CCCCC4)c2)cn1	0.00316 µM [falling, full curve, poor fit]
CCN(CC)CCN1C(=O)C(O)=C(C(C)=O)C1c1ccccc1 (configuration not stated)	31.6 µM [falling, partial curve, poor fit]
N#CC1=C2SCN(Cc3ccccc3)CN2C(=O)CC1c1ccc2c(c1)OCO2 (configuration not stated)	25.1 µM [rising, single point]
CC1(C)NC(=O)NC2(C)NC(=O)NC(C)(C)C12 (configuration not stated)	3.98 µM [rising, partial curve]
O=c1c2[nH]c3ccccc3c2ncn1C1CCCCC1	15.8 µM [rising, partial curve, poor fit]
Cc1cccn2c(=O)c3cc(C(=O)NCCN4CCOCC4)c(=N)n(CCc4ccccc4)c3nc12	12.6 µM [rising, partial curve]
Cc1c(C(=O)N2CCN(S(C)(=O)=O)CC2)oc2ccccc12	3.98 µM [falling, single point]
CCCCn1c(NC(=O)c2ccccc2)nc2ccccc21	12.6 µM [falling, single point]
Clc1ccccc1N1CCN(c2ncnc3nc[nH]c23)CC1	12.6 µM [rising, single point]
CCOC(=O)c1cnc2ccc(C(=O)OC)cc2c1NCCN1CCOCC1	15.8 µM [rising, partial curve]

Source: PubChem BioAssay AID662 (National Center for Advancing Translational Sciences (NCATS), 2007)
